{"sequences": {"note": "Protein sequences, listed by entry. Tags and fused reporters are not part of them.", "UniProt Q0JBA9, entry or part of it": "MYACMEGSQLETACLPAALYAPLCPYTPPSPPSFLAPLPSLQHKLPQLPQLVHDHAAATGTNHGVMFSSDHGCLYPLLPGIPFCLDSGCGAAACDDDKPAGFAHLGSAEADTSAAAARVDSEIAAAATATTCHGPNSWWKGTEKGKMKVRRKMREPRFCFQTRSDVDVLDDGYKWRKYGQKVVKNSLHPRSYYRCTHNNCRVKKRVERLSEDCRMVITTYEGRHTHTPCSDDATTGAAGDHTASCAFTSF"}, "source": "paper PMC7819943", "about": "“Rice protein-binding microarrays: a tool to detect cis-acting elements near promoter regions in rice”", "note": "This is one part of the list."}
{"molecular_target": "OsWRKY34 (Oryza sativa, UniProt Q0JBA9 1-250)", "assay": "protein-binding microarray (RPBM); PBS, 2% BSA, 51.3 ng/ul salmon testes DNA, 50 uM zinc acetate, 200 nM TF, 25 C, 1 h; high values mean tight binding", "conditions": "protein: recombinant; tags: N-terminal polyhistidine and DsRed monomer fusion (pET32a); label: CyDye5-dUTP incorporated in the synthesized complementary strand; 3' TTTTT single-stranded linker to array surface; dsDNA, one strand shown", "method_in_brief": "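Polyhistidine-tagged DsRed fusions of transcription factors, joined at the N-terminus, were expressed in E. coli BL21-CodonPlus and isolated on Ni–NTA. They were incubated at 200 nM for 1 h at 25 °C on a custom Agilent array, double-stranded and BSA-blocked, in PBS with 2% BSA, salmon testes DNA and 50 µM zinc acetate. The binding signal is per-feature fluorescence intensity (arbitrary units) read on an Axon 4000B scanner after washing.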"}
{"sequence": "GAGTACATGCATTATATTAGGCAATCACCATTTTGTAAACCGGAGTCACCTAGTGCAG", "binding signal": "8570 fluorescence intensity (a.u.)"}
{"sequence": "CGAAGCCGCACGAAGGTGGTGGTGGTTGGTGGTAGGGTTTCGGAGTCACCTAGTGCAG", "binding signal": "8030 fluorescence intensity (a.u.)"}
{"sequence": "ATTTCTGCCTAGTACGTGTTCGATCGGTGTTCCACGGTGACGGAGTCACCTAGTGCAG", "binding signal": "10500 fluorescence intensity (a.u.)"}
{"sequence": "GCAGTGCCATGTTCTTGAGTTTCTTTCGGTTTTTTTAATCCGGAGTCACCTAGTGCAG", "binding signal": "10500 fluorescence intensity (a.u.)"}
{"sequence": "GGGTGAGCACATCTGAAGAGACTTTCTTTTATATTCATTCCGGAGTCACCTAGTGCAG", "binding signal": "9680 fluorescence intensity (a.u.)"}
{"sequence": "CGTTACATTAGCCACCGCCGCTGCCACCACGGGCGCTGCCCGGAGTCACCTAGTGCAG", "binding signal": "9630 fluorescence intensity (a.u.)"}
{"sequence": "GTCTCTTTCCGCTGCTTCGTTTCTGTCTCCGGTTTATTCACGGAGTCACCTAGTGCAG", "binding signal": "18800 fluorescence intensity (a.u.)"}
{"sequence": "GACACCACCGCCGCCGCCGTCCTCGTCATCTCCAGATCGCCGGAGTCACCTAGTGCAG", "binding signal": "9850 fluorescence intensity (a.u.)"}
{"sequence": "CCACCCCAACCACCATCTCACTGCCAGTGGGCCCGAACCCCGGAGTCACCTAGTGCAG", "binding signal": "11200 fluorescence intensity (a.u.)"}
{"sequence": "CACCCATACATGAGTCCACTTCGAGTTGTCCTCTGTTGAACGGAGTCACCTAGTGCAG", "binding signal": "8660 fluorescence intensity (a.u.)"}
{"sequence": "TATGTGTCTGTTTCGCTCCGTTTTTGTTCATTAACCCGGTCGGAGTCACCTAGTGCAG", "binding signal": "10700 fluorescence intensity (a.u.)"}
{"sequence": "GTCAAATTTCTGTGCTCCATAAGATCTCTTCTCTTTTTTTCGGAGTCACCTAGTGCAG", "binding signal": "16700 fluorescence intensity (a.u.)"}
{"sequence": "GCTGACTACTCCCTACATCTCCTGATTTCTGGATATCTTGCGGAGTCACCTAGTGCAG", "binding signal": "8170 fluorescence intensity (a.u.)"}
{"sequence": "TGTAGTCCCGCGTCGCACGGCATCCGGCCGGCCTCTCCTACGGAGTCACCTAGTGCAG", "binding signal": "8760 fluorescence intensity (a.u.)"}
{"sequence": "AGCTTAGCCACTGCATGTCTGTTAGTACTAATAATAATTTCGGAGTCACCTAGTGCAG", "binding signal": "10100 fluorescence intensity (a.u.)"}
{"sequence": "GTTGAGCGCTGCTTCTGCAAATAATGTCCCCATCGATCGACGGAGTCACCTAGTGCAG", "binding signal": "8960 fluorescence intensity (a.u.)"}
{"sequence": "GGCCTATTCATTAGCGCTTACTTGTGGTGCACTATTTTGTCGGAGTCACCTAGTGCAG", "binding signal": "10300 fluorescence intensity (a.u.)"}
{"sequence": "ACTTAACCCATGCCAACTTCTTCTCTCTCTCTCTCTTCTCCGGAGTCACCTAGTGCAG", "binding signal": "8940 fluorescence intensity (a.u.)"}
{"sequence": "ATGTGGGCGGGTGGGTGTTCGTGTCTCCGCTTGTCTCCCCCGGAGTCACCTAGTGCAG", "binding signal": "14900 fluorescence intensity (a.u.)"}
{"sequence": "GGTGGGAAGTTGTAGTCTAGGAAGTGATTGATATTTGAGCCGGAGTCACCTAGTGCAG", "binding signal": "8910 fluorescence intensity (a.u.)"}
{"sequence": "CGCGCTCGTCCCATCCCATGCCTGCGGCCGTGACCGCGAGCGGAGTCACCTAGTGCAG", "binding signal": "8970 fluorescence intensity (a.u.)"}
{"sequence": "TGTCCTTTGCCAGCTTGCACTGATAGTTGCACCTAAACCACGGAGTCACCTAGTGCAG", "binding signal": "9150 fluorescence intensity (a.u.)"}
{"sequence": "TCAAACACGTACTAAAAAGTCAACGGTGTCAAACATTTTGCGGAGTCACCTAGTGCAG", "binding signal": "15600 fluorescence intensity (a.u.)"}
{"sequence": "GCTCCCACTGATCTCTCTCTCGTCTTCTTCTTCTTTGAGCCGGAGTCACCTAGTGCAG", "binding signal": "9240 fluorescence intensity (a.u.)"}
{"sequence": "TCTTCCACTTCTCTCTTTCTCTGTGTAGGGGCAGCAGTGGCGGAGTCACCTAGTGCAG", "binding signal": "10800 fluorescence intensity (a.u.)"}
{"sequence": "GCCCCGTTGTTTTCTTATTGAGATGTACAGTAGATTCTACCGGAGTCACCTAGTGCAG", "binding signal": "8900 fluorescence intensity (a.u.)"}
{"sequence": "AAAGGTGTTTGTATTTTTCACCGTCTTTTTTGCAGCGCTCCGGAGTCACCTAGTGCAG", "binding signal": "9940 fluorescence intensity (a.u.)"}
{"sequence": "ATAACCAACCTTGAGTGTCCGTGCTGCTGCCACCGCCCACCGGAGTCACCTAGTGCAG", "binding signal": "9900 fluorescence intensity (a.u.)"}
{"sequence": "GGATACGCCCATATATACGGCCCATACCCAATCGTCCTTCCGGAGTCACCTAGTGCAG", "binding signal": "8270 fluorescence intensity (a.u.)"}
{"sequence": "TTTTTTTACATTTAATACTCCATGCATGTATCCAAACATTCGGAGTCACCTAGTGCAG", "binding signal": "8280 fluorescence intensity (a.u.)"}
{"sequence": "TGTGTCACTCTACTCTTTGGATTATCTTACCCCTGCTTAGCGGAGTCACCTAGTGCAG", "binding signal": "8780 fluorescence intensity (a.u.)"}
{"sequence": "ATGAACATCGATCCACTCCTAACAACCTTCGACAATTATTCGGAGTCACCTAGTGCAG", "binding signal": "9420 fluorescence intensity (a.u.)"}
{"sequence": "CATGTCTCGAGTTGTTGTAATGGCGTCTTGGTTTGTGCTTCGGAGTCACCTAGTGCAG", "binding signal": "8050 fluorescence intensity (a.u.)"}
{"sequence": "GTACTATGTATTGTCCCATCGTTGTATAGGTTGGTTTTTTCGGAGTCACCTAGTGCAG", "binding signal": "8240 fluorescence intensity (a.u.)"}
{"sequence": "TTCCAACCCCAATTCGACCGACTGCTACCATTGAGCCCAGCGGAGTCACCTAGTGCAG", "binding signal": "9390 fluorescence intensity (a.u.)"}
{"sequence": "GATAATAATTCACCTGTAACCCAACCATATGCGACCACTCCGGAGTCACCTAGTGCAG", "binding signal": "9260 fluorescence intensity (a.u.)"}
{"sequence": "ACTATTACTCCTCACTTCTTATAGTTTACTCTTGGTTAATCGGAGTCACCTAGTGCAG", "binding signal": "10600 fluorescence intensity (a.u.)"}
{"sequence": "GTGTACATTTGCAAACTTGACATAATTACTTCATGGACCTCGGAGTCACCTAGTGCAG", "binding signal": "11200 fluorescence intensity (a.u.)"}
{"sequence": "AGAAATTCAATATATTCTCAACCGTGTGTCCGTTTGACTCCGGAGTCACCTAGTGCAG", "binding signal": "8880 fluorescence intensity (a.u.)"}
{"sequence": "TGATGTCTCTCTTGTCTCCATTTGGCATGTTCTCATCCGGCGGAGTCACCTAGTGCAG", "binding signal": "11100 fluorescence intensity (a.u.)"}
{"sequence": "AAGATTCACCTGTTCCTTTCGCACCAAACTTCCCAACAGACGGAGTCACCTAGTGCAG", "binding signal": "8730 fluorescence intensity (a.u.)"}
{"sequence": "ATAAATTAAGATGATGAATGGGTGACAATCTTTTTTTTCTCGGAGTCACCTAGTGCAG", "binding signal": "8100 fluorescence intensity (a.u.)"}
